Reference: patent publication US20070142433A1, “Angiogenesis-affecting compounds and methods of use thereof” (priority 2004, published 2007)
Where a name gives a salt, the structure may show the parent alone.

Test system: tumor size and vessel density
Assay: Further studies with other CPT-1 inhibitors
Details: CPT-1 inhibitors at 10 and 100 μm; FIGS. 37A-40

CCCCc1oc2ccccc2c1C(=O)c1cc(I)c(OCCN(CC)CC)c(I)c1 [Amiodarone Hydrochloride]
effects on tumor size and vessel density (as seen with Perhexiline): not seen
